The record followed here is PMC8967291.

Chains of the proteins cited; added tags and fusions are not shown.
UniProt P23242: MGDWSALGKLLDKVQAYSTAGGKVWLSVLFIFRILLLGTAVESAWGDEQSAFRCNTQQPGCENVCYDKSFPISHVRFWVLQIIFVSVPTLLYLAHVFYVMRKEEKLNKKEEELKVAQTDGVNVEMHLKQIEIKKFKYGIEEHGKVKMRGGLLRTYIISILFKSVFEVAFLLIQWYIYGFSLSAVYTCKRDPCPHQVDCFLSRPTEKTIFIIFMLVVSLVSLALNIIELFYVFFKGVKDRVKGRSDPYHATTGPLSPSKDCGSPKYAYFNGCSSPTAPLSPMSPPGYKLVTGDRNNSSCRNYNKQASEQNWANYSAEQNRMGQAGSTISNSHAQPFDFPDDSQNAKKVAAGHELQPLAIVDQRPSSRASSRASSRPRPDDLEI
UniProt P63085: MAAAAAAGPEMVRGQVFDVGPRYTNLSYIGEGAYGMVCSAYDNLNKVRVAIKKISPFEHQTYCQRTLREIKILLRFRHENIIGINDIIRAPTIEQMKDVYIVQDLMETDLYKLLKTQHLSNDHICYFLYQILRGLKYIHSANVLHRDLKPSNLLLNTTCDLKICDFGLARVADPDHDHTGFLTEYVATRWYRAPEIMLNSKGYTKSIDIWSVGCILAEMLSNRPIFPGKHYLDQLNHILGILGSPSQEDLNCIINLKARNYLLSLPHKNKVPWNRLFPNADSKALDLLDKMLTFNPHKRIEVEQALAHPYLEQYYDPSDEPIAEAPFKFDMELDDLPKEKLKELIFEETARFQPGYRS

Results are given in words; binding and its absence hold for the method and conditions named. Binding seen in cells or lysates may run through a third protein. Here binding means that the protein was enriched with, or labelled near, the bait; the list need not be complete.

This assay concerns the target connexin 43 (mouse (endogenous in NMVMs)) (UniProt P23242). The assay can be described thus: affinity purification with mass spectrometry; Co-IP with antibody against Cx43 from RIPA lysates of NMVMs cultured under NG, NLG, HG and HLG conditions; overnight at 4°C, Protein G Agarose, five washes with cell lysis buffer (20 mM Tris-HCl, 150 mM glycerol, 0.5% Triton X-100, 1 mM EDTA, 1 mM EGTA); eluted proteins analysed on a Q Exactive HF Orbitrap.

Take “mitogen-activated protein kinase 1 (from UniProt P63085 1-358) (enzyme)”: the binding result is listed as “binds”. Then “MAP2K1 (from UniProt P31938 1-393) (enzyme)”, with “binds”.
